# Test results reported in the supplement of paper PMC3334620.
# The full ranking holds about 33,000 sequences; the median of “E-score (-0.5 to 0.5)” is about -0.0014, and the highest 2% start at about 0.25. This is one part of the list.
# Biological target: T1, Cad1 (UniProt P24813)
# T1 sequence: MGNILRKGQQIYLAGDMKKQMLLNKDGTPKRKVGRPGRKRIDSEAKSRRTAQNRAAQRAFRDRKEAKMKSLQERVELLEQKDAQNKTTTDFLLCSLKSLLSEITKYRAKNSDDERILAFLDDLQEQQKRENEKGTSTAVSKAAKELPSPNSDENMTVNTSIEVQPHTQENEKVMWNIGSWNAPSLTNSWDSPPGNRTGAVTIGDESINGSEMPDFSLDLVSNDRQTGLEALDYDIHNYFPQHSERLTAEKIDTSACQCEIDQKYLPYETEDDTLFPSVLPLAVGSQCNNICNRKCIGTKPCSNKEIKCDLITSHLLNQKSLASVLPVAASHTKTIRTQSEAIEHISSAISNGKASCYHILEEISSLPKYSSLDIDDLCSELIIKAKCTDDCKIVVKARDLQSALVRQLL
# Experiment: PBM E-score (8-mer binding enrichment) (E-score (-0.5 to 0.5)); higher = stronger / more preferred TF binding
# Conditions: protein concentration: 100 nM; construct: GST-full length
# In short: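 Bound GST-tagged yeast transcription factors, applied at about 100-200 nM to double-stranded universal all-10-mer Agilent arrays, were detected with fluorescent anti-GST. Scans were normalised with masliner. A modified Wilcoxon-Mann-Whitney statistic, the E-score, was assigned to each ungapped eight-base word pooled with its reverse complement by the Universal PBM Analysis Suite.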
row,Sequence,PBM E-score
1,ACTTAGAC,0.0693
2,GCCCTACA,0.00587
3,ATAAAGAT,0.0729
4,GGAGAGAC,-0.225
5,GGATGTCA,0.0717
6,CCGTGAGA,0.00771
7,CTCTGCTA,-0.242
8,ACGCAGTA,-0.155
9,ATCTTGCG,0.0982
10,CACGTTTC,-0.176
11,ATCACTGG,0.00347
12,ATGCTCAA,-0.0662
13,CAGTCGCG,-0.00755
14,GGACACAA,0.0879
15,CATCATAG,0.132
16,CCTACCAC,-0.288
17,ATAGCGGG,-0.222
18,GAAGGGCC,-0.0244
19,GTCCAATA,0.162
20,GAGACGCA,0.0404
21,CAGGTGTA,-0.135
22,GCGCGGAA,0.13

row,Sequence,PBM E-score
1,GCTGCGTA,0.0998
2,CAGTGAAC,0.123
3,GATAAGAC,-0.00501
4,GTAACCAA,0.119
5,ACTTTCAA,0.108
6,GCCTGCGC,-0.0489
7,ACACCGGA,-0.144
8,GACGTAAA,0.0659
9,CATGCGGG,-0.115
10,AGGCGGGA,0.0276
11,CAAGCGTC,0.132
12,ATGGCTAC,-0.0325
13,GACTACTA,0.197
14,GAGACATC,-0.186
15,CTATAAGC,-0.0776
16,CAGGTACG,-0.269
17,CGCAATCA,0.0689
18,AAGAAAAT,0.167
19,CCATAGTC,-0.0534
20,ACAATGGT,-0.0362
21,GAATGGTC,-0.0781
22,AAGCGATT,0.187

row,Sequence,PBM E-score
1,CCCGTCCA,-0.164
2,AGACCTCG,0.0835
3,GATAAGTA,0.0851
4,AACCCCAA,0.113
5,ATTCCAGG,-0.0271
6,ACCTGTAC,-0.0708
7,GATCCGCA,-0.0378
8,CCCGCATC,-0.24
9,AGGCTGTC,-0.289
10,TACGGCAA,0.2
11,CCAGGGTC,-0.269
12,CGAACGAC,0.0659
13,CCTGACAA,-0.0066
14,CCATTCTA,-0.0256
15,AGTACCTG,-0.0799
16,CGAAAATC,0.259
17,TATCGTCA,0.0719
18,ACGCGGCT,-0.0787
19,AGCTACAT,-0.0024
20,ACTTCGTG,-0.141
21,CCACTCCA,-0.0933
22,CATTGCCA,-0.0605

# Exported with tabs: part of the list above.
row	Sequence	PBM E-score
5	ATTCCAGG	-0.0271
6	ACCTGTAC	-0.0708
7	GATCCGCA	-0.0378
8	CCCGCATC	-0.24
9	AGGCTGTC	-0.289
10	TACGGCAA	0.2
11	CCAGGGTC	-0.269
12	CGAACGAC	0.0659
13	CCTGACAA	-0.0066
14	CCATTCTA	-0.0256
15	AGTACCTG	-0.0799
16	CGAAAATC	0.259
17	TATCGTCA	0.0719
18	ACGCGGCT	-0.0787
19	AGCTACAT	-0.0024
20	ACTTCGTG	-0.141
21	CCACTCCA	-0.0933

# The results go on:

row,Sequence,PBM E-score
1,CGAGATCA,0.0902
2,TCAAGCAA,-0.128
3,AGCCGACG,-0.0624
4,CTTCGGGA,-0.0798
5,CCGCGTGA,0.156
6,CCATGGCG,0.187
7,CCGATTGA,0.144
8,AACGTGAT,0.00627
9,AAATTTTA,0.234
10,GCGCCACA,0.0679
11,AGACGCCC,-0.118
12,CCAAAATC,0.169
13,CCTATCCC,0.0551
14,AATTACAG,0.161
15,ATGTGCCA,0.0507
16,ATCCTGAG,0.13
17,CCACTGGA,0.00141
18,CTTAAAGC,0.0884
19,GCGTTAAA,-0.0607
20,AAACCAAT,0.134
